Assay results as given in PMC4931344, “The FNIP co-chaperones decelerate the Hsp90 chaperone cycle and enhance drug binding” (Nature Communications, 2016).
These are yes or no findings as the source states them, for the method shown. Binding seen in cells or lysates may run through a third protein. For part of these data: Binding calls can cover weak binding; strength is not graded here. For part of these data: Sequences can lack the tags named with a protein.

T1: HA–FNIP1-D (amino acids 929–1166) (UniProt Q8TF40)
T1 sequence: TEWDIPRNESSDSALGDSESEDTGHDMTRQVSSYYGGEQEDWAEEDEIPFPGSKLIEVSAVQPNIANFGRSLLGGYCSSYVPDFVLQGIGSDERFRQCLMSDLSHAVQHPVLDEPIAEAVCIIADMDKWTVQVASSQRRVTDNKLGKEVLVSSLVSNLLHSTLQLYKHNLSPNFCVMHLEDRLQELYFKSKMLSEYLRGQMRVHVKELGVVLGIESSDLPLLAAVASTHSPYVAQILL

B1: endogenous FNIP1 (folliculin-interacting protein 1) (protein, UniProt Q8TF40 1-1166)
chain: MAPTLFQKLFSKRTGLGAPGRDARDPDCGFSWPLPEFDPSQIRLIVYQDCERRGRNVLFDSSVKRRNEDISVSKLGSDAQVKVFGKCCQLKPGGDSSSSLDSSVTSSSDIKDQCLKYQGSRCSSDANMLGEMMFGSVAMSYKGSTLKIHQIRSPPQLMLSKVFTARTGSSICGSLNTLQDSLEFINQDNNTLKADNNTVINGLLGNIGLSQFCSPRRAFSEQGPLRLIRSASFFAVHSNPMDMPGRELNEDRDSGIARSASLSSLLITPFPSPNSSLTRSCASSYQRRWRRSQTTSLENGVFPRWSIEESFNLSDESCGPNPGIVRKKKIAIGVIFSLSKDEDENNKFNEFFFSHFPLFESHMNKLKSAIEQAMKMSRRSADASQRSLAYNRIVDALNEFRTTICNLYTMPRIGEPVWLTMMSGTPEKNHLCYRFMKEFTFLMENASKNQFLPALITAVLTNHLAWVPTVMPNGQPPIKIFLEKHSSQSVDMLAKTHPYNPLWAQLGDLYGAIGSPVRLARTVVVGKRQDMVQRLLYFLTYFIRCSELQETHLLENGEDEAIVMPGTVITTTLEKGEIEESEYVLVTMHRNKSSLLFKESEEIRTPNCNCKYCSHPLLGQNVENISQQEREDIQNSSKELLGISDECQMISPSDCQEENAVDVKQYRDKLRTCFDAKLETVVCTGSVPVDKCALSESGLESTEETWQSEKLLDSDSHTGKAMRSTGMVVEKKPPDKIVPASFSCEAAQTKVTFLIGDSMSPDSDTELRSQAVVDQITRHHTKPLKEERGAIDQHQETKQTTKDQSGESDTQNMVSEEPCELPCWNHSDPESMSLFDEYFNDDSIETRTIDDVPFKTSTDSKDHCCMLEFSKILCTKNNKQNNEFCKCIETVPQDSCKTCFPQQDQRDTLSILVPHGDKESSDKKIAVGTEWDIPRNESSDSALGDSESEDTGHDMTRQVSSYYGGEQEDWAEEDEIPFPGSKLIEVSAVQPNIANFGRSLLGGYCSSYVPDFVLQGIGSDERFRQCLMSDLSHAVQHPVLDEPIAEAVCIIADMDKWTVQVASSQRRVTDNKLGKEVLVSSLVSNLLHSTLQLYKHNLSPNFCVMHLEDRLQELYFKSKMLSEYLRGQMRVHVKELGVVLGIESSDLPLLAAVASTHSPYVAQILL
B2: endogenous FNIP2 (folliculin-interacting protein 2) (protein, UniProt Q9P278 1-1114)
chain: MAPTLLQKLFNKRGSSGSSAAASAQGRAPKEGPAFSWSCSEFDLNEIRLIVYQDCDRRGRQVLFDSKAVQKIEEVTAQKTEDVPIKISAKCCQGSSSVSSSSSSSISSHSSSGGSSHHAKEQLPKYQYTRPASDVNMLGEMMFGSVAMSYKGSTLKIHYIRSPPQLMISKVFSARMGSFCGSTNNLQDSFEYINQDPNLGKLNTNQNSLGPCRTGSNLAHSTPVDMPSRGQNEDRDSGIARSASLSSLLITPFPSPSSSTSSSSSYQRRWLRSQTTSLENGIIPRRSTDETFSLAEETCSSNPAMVRRKKIAISIIFSLCEKEEAQRNFQDFFFSHFPLFESHMNRLKSAIEKAMISCRKIAESSLRVQFYVSRLMEALGEFRGTIWNLYSVPRIAEPVWLTMMSGTLEKNQLCQRFLKEFTLLIEQINKNQFFAALLTAVLTYHLAWVPTVMPVDHPPIKAFSEKRTSQSVNMLAKTHPYNPLWAQLGDLYGAIGSPVRLTRTVVVGKQKDLVQRILYVLTYFLRCSELQENQLTWSGNHGEGDQVLNGSKIITALEKGEVEESEYVVITVRNEPALVPPILPPTAAERHNPWPTGFPECPEGTDSRDLGLKPDKEANRRPEQGSEACSAGCLGPASDASWKPQNAFCGDEKNKEAPQDGSSRLPSCEVLGAGMKMDQQAVCELLKVEMPTRLPDRSVAWPCPDRHLREKPSLEKVTFQIGSFASPESDFESRMKKMEERVKACGPSLEASEAADVAQDPQVSRSPFKPGFQENVCCPQNRLSEGDEGESDKGFAEDRGSRNDMAADIAGQLSHAADLGTASHGAGGTGGRRLEATRGLYVKAAEGPVLEPVAPRCVQRGPGLVAGANIPCGDDNKKANFRTEGDIPRNESSDSALGDSDDEACASAMLDLGHGGDRTGGSLEVELPLPRSQSISTQNVRNFGRSLLAGYCPTYMPDLVLHGTGSDEKLKQCLVADLVHTVHHPVLDEPIAEAVCIIADTDKWSVQVATSQRKVTDNMKLGQDVLVSSQVSSLLQSILQLYKLHLPADFCIMHLEDRLQEMYLKSKMLSEYLRGHTRVHVKELGVVLGIESNDLPLLTAIASTHSPYVAQILL

Columns and labels:
[1] = biological target: T1, HA–FNIP1-D (amino acids 929–1166); assay: co-IP; HA-tagged FNIP1-D co-expressed with FLAG-tagged Hsp90α full length or domains in HEK293; HA–FNIP1-D immunoprecipitated, immunoblot
[2] = biological target: FLAG-tagged Hsp90α M-domain (human); assay: co-IP; FLAG-tagged Hsp90α N-, M- and C-domains transiently expressed in HEK293, IP with anti-FLAG M2 affinity gel; immunoblot for endogenous FLCN and FNIPs
[3] = biological target: FLAG-tagged Hsp90α C-domain (human); assay: as above
[4] = biological target: FLAG-tagged Hsp90α N-domain (human); assay: as above

Molecule	binding [1]	binding [2]	binding [3]	binding [4]
FLAG-tagged Hsp90α M-domain (human) (domain or fragment)	binds			
B1		binds	binds	
B2		binds	no binding	no binding
